Assay results from the supplement of paper PMC4683952.
Some of the results follow. Rule as the data show it: active = 2 or more and inactive = the rest. Most values lie within the scatter of the assay; repeated measurements hardly agree.

These compounds were tested on Lgr5 (MarsCy1-Lgr5-EGFP, U2OS) (assay: cell-surface Lgr5 expression (SCi1 fluorescence, background-subtracted) relative to WT DMSO (fold of DMSO control); higher = more Lgr5 at the plasma membrane). Details: U2OS MarsCy1-Lgr5-EGFP stable; treatment time: overnight; library: ActiProbe-5K (TimTec); 25 µM.

Row | SMILES | cell-surface Lgr5 expression
1 | OC1(CCl)CN2CCC1CC2 (centres undefined) | inactive: 1.33
2 | O=C(O)c1[nH]nc(-c2n[nH]c(C(=O)O)c2[N+](=O)[O-])c1[N+](=O)[O-] | inactive: 1.41
3 | CCOc1nc(NC(C)C)nc(N2CC3CC(C2)c2cccc(=O)n2C3)n1 (centres undefined) | inactive: 1.12
4 | Nc1nonc1/N=[N+](/[O-])c1nonc1N | inactive: 1.08
5 | N=c1c(N=O)c(O)[nH]c(=O)n1Cc1ccco1 | inactive: 1.17
6 | O=[N+]([O-])c1cc(F)c(N2CCCC2)cc1N1CCNCC1 | inactive: 1.3
7 | O=C1CCN[C@@H]2CCCC[C@@H]12 | inactive: 1.03
8 | CN1CCN(c2ccc([N+](=O)[O-])c(N3CCCC3)c2)CC1 | inactive: 1.04
9 | NC(=O)c1n[nH]c([N+](=O)[O-])c1[N+](=O)[O-] | inactive: 1.71
10 | c1([N+]([O-])=O)sc(/C=C(\C#N)C#N)cc1 | inactive: 0.855
11 | CCNc1nc(Cl)nc(NCC)n1 | inactive: 1.2
12 | CC(=O)OC1C2CCC1C(N1CCCCC1)CC2.Cl (centres undefined) | inactive: 1.2
13 | COCc1c(C(=O)NN)nnn1-c1nonc1N | inactive: 1.2
14 | Nc1ccc([N+](=O)[O-])c2nonc12 | inactive: 1.05
15 | O=[N+]([O-])/C=C/c1ccc2c(c1)OCO2 | inactive: 0.483
16 | Fc1nc(N2CCNCC2)c(F)c(Sc2ccc(Cl)cc2)c1F | inactive: 1.16
17 | CN(C)c1ccc([N+](=O)[O-])c(C(F)(F)F)c1 | inactive: 1.18
18 | c1(/C=C(/C#N)C#N)c(cc(c(c1)Br)OC)OC | inactive: 0.689
19 | c1cc(C2N3CCCN23)ccn1 (centres undefined) | inactive: 0.999
20 | CCNC1(c2cccs2)CCCCC1 | inactive: 1.46
21 | c1(sc(CC)cc1)/C=C(/C#N)C#N | inactive: 1.25
22 | Cc1noc(C2CCNCC2)n1 | inactive: 1.1
23 | N#CC[N+]12CCN(CC1)CC2.[Cl-] | inactive: 1.06
24 | CCc1[nH]nc2c1C1(CN3CCC1CC3)C(C#N)=C(N)O2 (centres undefined) | inactive: 1.05
25 | Nc1c(Br)cc([N+](=O)[O-])cc1Br | inactive: 1.16

Taken from above:
Nc1c(Br)cc([N+](=O)[O-])cc1Br | cell-surface Lgr5 expression: inactive: 1.16
Fc1nc(N2CCNCC2)c(F)c(Sc2ccc(Cl)cc2)c1F | cell-surface Lgr5 expression: inactive: 1.16
c1cc(C2N3CCCN23)ccn1 (centres undefined) | cell-surface Lgr5 expression: inactive: 0.999
c1(/C=C(/C#N)C#N)c(cc(c(c1)Br)OC)OC | cell-surface Lgr5 expression: inactive: 0.689
NC(=O)c1n[nH]c([N+](=O)[O-])c1[N+](=O)[O-] | cell-surface Lgr5 expression: inactive: 1.71

(next part)

Row | SMILES | cell-surface Lgr5 expression
26 | O=[N+]([O-])c1cc2nonc2c2nn[nH]c12 | inactive: 1.04
27 | Cc1ccc[n+]([C-]([N+](=O)[O-])[N+](=O)[O-])c1 | inactive: 1.29
28 | CN1CCN(c2ccc(F)cc2N)CC1 | inactive: 1.13
29 | Cc1nc2c(o1)NC(N)=C(C#N)C21CCN(C)CC1 | inactive: 1.22
30 | NCCc1c[nH]c2ccc(F)cc12 | inactive: 1.43
31 | ClCc1ccc2ccccc2n1 | inactive: 1.21
32 | CNc1ccc([N+](=O)[O-])cc1[N+](=O)[O-] | inactive: 1.43
33 | Nc1c(Cl)cc([N+](=O)[O-])cc1Cl | inactive: 1.32
34 | Cc1ccc(NC2=NCC(C)S2)cc1C (centres undefined) | inactive: 1.32
35 | COC(=O)c1ccc(CCl)s1 | inactive: 1.2
36 | CN1CCC2(CC1)OC1CCCCC1c1sccc12 (centres undefined) | inactive: 1.11
37 | CN1CCN(c2ccc([N+](=O)[O-])c(NC3CC3)c2)CC1 | inactive: 0.863
38 | CN(C)c1ccc2c(C(F)(F)F)cc(=O)oc2c1 | inactive: 1.05
39 | c1([N+]([O-])=O)c(sc(c1)/C=C(\C#N)C#N)C | inactive: 1.02
40 | Nc1nc2nonc2nc1N | inactive: 0.787
41 | CC(C)OCCCNC1CCN(C)CC1 | inactive: 1.09
42 | O=c1oc2ccccc2c(O)c1C1c2ccccc2Oc2c1c(=O)oc1ccccc21 (centres undefined) | inactive: 1.14
43 | O=c1[nH]c2nonc2[nH]c1=O | inactive: 1.16
44 | C(#CCN1CCCC1)CN1CCCC1 | inactive: 1.45
45 | Cc1[nH]nc2c1C1(CN3CCC1CC3)C(C#N)=C(N)O2 (centres undefined) | inactive: 1.25
46 | S=C=NCC1CCCO1 (centres undefined) | inactive: 1.34
47 | Cc1cccc(NC2=NCC(C)S2)n1 (centres undefined) | inactive: 1.29
48 | c1ccc2sc(N3CCNCC3)nc2c1 | inactive: 1.17
49 | O=C1c2ccccc2-c2cccc3cccc1c23 | inactive: 1.24
50 | O=[N+]([O-])c1cc[n+]([O-])c2ccccc12 | inactive: 1.66

Part of the list above, field by field.
S=C=NCC1CCCO1 (centres undefined)
  cell-surface Lgr5 expression: inactive: 1.34
Cc1cccc(NC2=NCC(C)S2)n1 (centres undefined)
  cell-surface Lgr5 expression: inactive: 1.29
c1ccc2sc(N3CCNCC3)nc2c1
  cell-surface Lgr5 expression: inactive: 1.17

Following part:

Row | SMILES | cell-surface Lgr5 expression
51 | CC(C)C/C(=N/O)c1cn(C)c2ccccc12 | inactive: 1.18
52 | CCCc1[nH]nc2c1C1(CN3CCC1CC3)C(C#N)=C(N)O2 (centres undefined) | inactive: 1.11
53 | Cc1cc(C)[n+]2cc(Br)ccc2n1.[O-][Cl+3]([O-])([O-])[O-] | inactive: 1.17
54 | O=S1(=O)CC2SC2C1 (centres undefined) | inactive: 1.2
55 | C=C(C)CC1NC2CC(C)(C)C1c1ccccc12 (centres undefined) | inactive: 1.62
56 | OC(c1ccc(Cl)s1)(c1ccc(Cl)s1)C1CN2CCC1CC2 (centres undefined) | inactive: 1.23
57 | c1ccc(/N=N/Nc2ccccc2)cc1 | inactive: 1.09
58 | CN1C2C=C3[C@H](C1CC2)[C@@H](c1ccc(Cl)cc1)C(C#N)=C(N)C3(C#N)C#N (some centres undefined) | inactive: 1.17
59 | Cl.NC1(c2ccc(F)cc2)CC1 | inactive: 1.31
60 | CC(=O)Cn1nnc([N+](=O)[O-])n1 | inactive: 0.883
61 | Cc1cc(C)c(/C(N)=N\O)c(Cl)n1 | inactive: 1.35
62 | Cl.ClCc1ccncc1 | inactive: 1.62
63 | c1(/C=C(\C#N)C#N)c2c(cccc2)cc2c1cccc2 | inactive: 1.36
64 | Nc1nc(N)c2nn[nH]c2n1 | inactive: 1.11
65 | O=[N+]([O-])c1cnn(-c2nnn[nH]2)c1 | inactive: 0.919
66 | C/C(=N\O)c1cn(C)c2ccccc12 | inactive: 1.16
67 | c1(n(ccc1)C)/C=C(\C#N)C#N | inactive: 1.01
68 | NCC1CCCN2CCCCC12 (centres undefined) | inactive: 1.19
69 | N/C(=N/O)c1nonc1N | inactive: 1.3
70 | O=C1NC(=O)C(=O)C(O)(O)N1 | inactive: 0.577
71 | CCCCC/C(=N/O)c1c(C)[nH]c2ccccc12 | inactive: 1.02
72 | N=c1nc(-c2ccccc2)n(-c2ccccc2)s1.[O-][Cl+3]([O-])([O-])O | inactive: 0.825
73 | CN(C)CCNc1ccc([N+](=O)[O-])c2cccnc12.Cl | inactive: 1.96
74 | N/C(=N/N=C/c1ccc([N+](=O)[O-])o1)c1nonc1N | inactive: 0.605
75 | O=C(c1nccs1)C1CCCN1 (centres undefined) | inactive: 0.654

Row | SMILES | cell-surface Lgr5 expression
76 | Fc1ccc(COCC23COCN2COC3)cc1 | inactive: 1.08
77 | COC(C)C(O)(C(=O)OCC1=CCN2CC[C@H](O)C12)C(C)C (some centres undefined) | inactive: 1.4
78 | C=C[C@]1(O)CCC2C3CC4OC45CC(OC(C)=O)CCC5(C)C3CCC21C (some centres undefined) | inactive: 1.65
79 | N#CCC1CCCN2CCCCC12 (centres undefined) | inactive: 1.03
80 | COc1cc2c(cc1OC)-c1c(OC)c(OC)c([N+](=O)[O-])c3c1C(C2)N(C)CC3 (centres undefined) | inactive: 1.06
81 | O=S(c1ccc(Cl)cc1)c1ccc(Cl)cc1 | inactive: 0.788
82 | COCCN1CCC(O)C2CCCCC21 (centres undefined) | inactive: 0.985
83 | CCCCc1nc2c(o1)NC(N)=C(C#N)C21CN2CCC1CC2 (centres undefined) | inactive: 1.19
84 | N#Cc1nonc1-c1nnn[nH]1 | inactive: 0.859
85 | CC1CC(=O)C2CCCCC2N1 (centres undefined) | inactive: 1.14
86 | COc1cc(C2c3cc4c(cc3OC3(N5CCCC5)CCCC23)OCO4)cc(OC)c1OC (centres undefined) | inactive: 1.3
87 | c1ccc2c(c1)Nc1ccccc1S2 | inactive: 1.11
88 | CCC(C)C12CN3CCN(CC(C)(C3)C1=O)C2 (centres undefined) | inactive: 1.22
89 | O=C(OCC1CCCN2CCCCC12)c1cc2ncc(Br)cn2n1 (centres undefined) | inactive: 1.11
90 | Cc1c(C(N)=O)nnn1-c1nonc1N | inactive: 0.832
91 | c1(oc(/C=C(\C#N)C#N)cc1)N1CCOCC1 | inactive: 1.06
92 | Fc1ccc2c(c1)[C@@H]1C=CC[C@@H]1[C@H](c1cccnc1)N2 | inactive: 0.874
93 | Oc1cc(Cl)c(Cl)cc1O | inactive: 0.928
94 | CC(=O)OCC1=C(C(=O)O)N2C(=O)C(N)C2SC1 (centres undefined) | inactive: 0.845
95 | Cn1c(=O)c2c(c3ccccc31)NC(=S)NN=C2 | inactive: 0.827
96 | C[n+]1noc(/N=C(\[O-])C(F)(F)F)c1-c1ccccc1 | inactive: 1.05
97 | CN1CC2c3ccccc3OC(c3ccc(Cl)cc3)C2([N+](=O)[O-])O1 (centres undefined) | inactive: 0.616
98 | O=[N+]([O-])c1cc(F)c(N2CCCCCC2)cc1N1CCNCC1 | inactive: 0.799
99 | Cc1nn(C)c(C)c1CN1CCNCC1 | inactive: 1.41
100 | Clc1ccc2c(N3CCNCC3)ccnc2c1 | inactive: 0.95

Row | SMILES | cell-surface Lgr5 expression
101 | COC(=O)Cn1nnc(S(C)(=O)=O)n1 | inactive: 1.08
102 | [Br-].[Br-].c1cc[n+]2c(c1)-c1cccc[n+]1CC2 | inactive: 0.662
103 | Cn1nnnc1SCSc1nnnn1C | inactive: 1.51
104 | c1(c(oc(c1)C)SCC)/C=C(\C#N)C#N | inactive: 1.24
105 | O=c1[nH]c(=S)[nH]c(O)c1Cc1c(O)[nH]c(=S)[nH]c1=O | inactive: 1.17
106 | c1cnc2nc(N3CCNCC3)oc2c1 | inactive: 0.996
107 | Fc1ccc(C2CCNC2)cc1 (centres undefined) | inactive: 0.993
108 | CC(C)(C)NC(=O)[C@@H]1C[C@@H]2CCCC[C@@H]2CN1 | inactive: 1.08
109 | O=c1oc2ccccc2c(O)c1C1c2cc(Cl)ccc2Oc2c1c(=O)oc1ccccc21 (centres undefined) | inactive: 1.51
110 | CCCNC(=O)OCC12COCN1COC2 | inactive: 0.996
111 | Fc1cccc(C2NCc3ccccc3-n3cccc32)c1 (centres undefined) | inactive: 1.26
112 | C/C(Cn1nnc([N+](=O)[O-])n1)=N\NC(=O)c1c(C)nnn1-c1nonc1N | inactive: 0.906
113 | C/C(=N\O)c1c(C)[nH]c2ccccc12 | inactive: 0.813
114 | O=C(O)Cn1cnc([N+](=O)[O-])n1 | inactive: 1.36
115 | COC(=O)c1n[nH]nc1[N+](=O)[O-] | inactive: 1.03
116 | CN(C)c1ccc([N+](=O)[O-])c2cccnc12 | inactive: 0.951
117 | COCC(=O)OCC1CCCN2CCCCC12 (centres undefined) | inactive: 1.84
118 | c1(sc(CCCC)cc1)/C=C(\C#N)C#N | inactive: 1.1
119 | Nc1ccc(S(=O)(=O)O)cc1.Nc1ncn[nH]1 | inactive: 0.867
120 | Nc1ccc2c(c1)Cc1ccccc1-2 | inactive: 1.05
121 | CN1CCN(c2cc3nc(N)c(C#N)nc3cc2F)CC1 | inactive: 1.24
122 | Cc1coc2c1CCC(C)C2 (centres undefined) | inactive: 1.28
123 | OC12CC(C3COC1O3)n1c(nc3ccccc31)N2 (centres undefined) | inactive: 1.29
124 | c1([N+]([O-])=O)cn(\C(=C/N(C)C)/C=[N+](/C)C)nc1.[O-]Cl(=O)(=O)=O | inactive: 1.45
